Article PMC5703867

Biological target: CXCL8 (human)
Assay: ELISA; chemokines coated at 150 ng/well in 0.1 M carbonate pH 9.5, 4% BSA block, BKT130Fc at 0, 1, 10 and 50 µg/ml for 2 h at RT, detected with goat anti-human IgG HRP, O.D. 450 nm

B1: BKT130Fc peptibody (Fc fusion)
chain: SIPSHSIHSAKAGGGSKG
binding: no binding (tested: 50 µg/ml)

These are yes or no findings as the source states them, for the method shown.
